Experimental data: PubChem BioAssay AID651640 (Broad Institute, 2012)
Screen size: about 350,000 compounds; about 6,000 (1.7%) were called active. Inconclusive results, whose numbers are uncertain, are shown with a selection of clear calls. Cut-off read from the data, not from the text of the source: active = CPE inhibition above about 20% (passing the limit was not always enough); inconclusive = no clear call, values can overlap the other calls; tested in BHK-21 cells.

test: protection of cells from dengue 2 killing – plate reader, single concentration, primary screen (AID 651640); conditions: DENV2-infected cells, cytopathic effect rescue, at 9.99 µM, active compounds read high;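 note: 0% = median of neutral control wells and 100% = median of positive control wells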

| Compound | CPE inhibition |
| --- | --- |
| C[C@H]1CN([C@@H](C)CO)S(=O)(=O)c2ccc(C3=CCCC3)cc2O[C@H]1CN(C)C(=O)c1cccnc1 | inconclusive: 21.6% |
| COc1ccc(S(=O)(=O)N(C)C[C@H]2Oc3c(NC(=O)Nc4ccc(C(F)(F)F)cc4)cccc3C(=O)N([C@@H](C)CO)C[C@H]2C)cc1 | inactive: -5.03% |
| COCC(=O)N1[C@H](CN(C)C(=O)c2cccnc2)[C@@H](c2ccccc2)[C@@H]1CO | inconclusive: 24.4% |
| CC(C)CC#Cc1ccc([C@@H]2[C@@H](CO)N3C(=O)CN(C(=O)NC4CCCC4)C[C@@H]23)cc1 | inconclusive: 25.7% |
| NS(=O)(=O)c1ccc(CCNc2nn3c(-c4cccc(OC(F)(F)F)c4)cnc3s2)cc1 | inactive: -2.2% |
| CC(=O)N(C[C@H]1N[C@H](CO)[C@H]1c1ccc(-c2ccc(F)cc2)cc1)C(C)C | active: 63.8% |
| COc1cccc(-c2ccc(C3[C@@H]4CN(C(=O)c5cnccn5)C[C@H]3N4)cc2)c1 (stereo partly drawn) | inconclusive: 24.1% |
| Cc1ccc[n+](CC(=O)c2ccc(-c3ccccc3)cc2)c1 | inconclusive: 22.7% |
| C[C@@H]1CCCCO[C@@H](CN(C)Cc2ccc(Cl)c(Cl)c2)[C@H](C)CN([C@@H](C)CO)C(=O)c2cc(NS(=O)(=O)c3ccccc3)ccc2O1 | inactive: 8.83% |
| O=C(c1cnccn1)N1CC[C@@H]2[C@H](CO)Nc3ccc(-c4ccccc4F)cc3[C@@H]21 | inconclusive: 37.5% |
| C[C@@H]1CN([C@H](C)CO)C(=O)c2cccc(NS(=O)(=O)c3cn(C)cn3)c2O[C@H]1CN(C)C(=O)Nc1ccc(F)cc1 | active: 71.5% |
| CO[C@H]1CN(C)C(=O)c2ccc(NS(=O)(=O)c3ccccc3)cc2OC[C@@H](C)N(Cc2ccccn2)C[C@@H]1C | inactive: -2.61% |
| CC(C)C[C@@H]1NC(=O)[C@@H]2C[C@H](C(=O)NCc3ccc(F)cc3)[C@H](c3ccc(O)cc3)N2C1=O | inactive: 9.23% |
| COc1ccc(CC(=O)Nc2ccc(C)c(S(=O)(=O)N3CCCCCC3)c2)cc1 | active: 35.4% |
| O=[N+]([O-])c1cncc([N+](=O)[O-])c1Nc1cccc(O)c1 | inactive: 2.11% |
| C[C@H](CO)N1C[C@H](C)[C@H](CN(C)Cc2ccncc2)Oc2ncc(C3=CCCCC3)cc2C1=O | inactive: -6.62% |
| COc1ccc(NC(=O)N(C)C[C@@H]2OCc3ccccc3-c3ccccc3C(=O)N([C@@H](C)CO)C[C@@H]2C)cc1 | inconclusive: 38% |
| COc1ccc(NC(=O)N(C)C[C@@H]2OCCCC[C@@H](C)Oc3ccc(NS(=O)(=O)c4ccc(Cl)cc4)cc3C(=O)N([C@H](C)CO)C[C@H]2C)cc1 | active: 37.6% |

Random excerpt: 2 entries already listed, in no set order.

| Compound | CPE inhibition |
| --- | --- |
| COc1ccc(S(=O)(=O)N(C)C[C@H]2Oc3c(NC(=O)Nc4ccc(C(F)(F)F)cc4)cccc3C(=O)N([C@@H](C)CO)C[C@H]2C)cc1 | inactive: -5.03% |
| COCC(=O)N1[C@H](CN(C)C(=O)c2cccnc2)[C@@H](c2ccccc2)[C@@H]1CO | inconclusive: 24.4% |
